From publication PMC4890047
Results are given in words; binding and its absence hold for the method and conditions named. In cells and extracts the contact can be indirect. Some results given as binding are weak or reduced against the parent protein; the word gives no strength. Sequences can lack the tags named with a protein.

Chains of the proteins cited; added tags and fusions are not shown.
UniProt Q8B6J8: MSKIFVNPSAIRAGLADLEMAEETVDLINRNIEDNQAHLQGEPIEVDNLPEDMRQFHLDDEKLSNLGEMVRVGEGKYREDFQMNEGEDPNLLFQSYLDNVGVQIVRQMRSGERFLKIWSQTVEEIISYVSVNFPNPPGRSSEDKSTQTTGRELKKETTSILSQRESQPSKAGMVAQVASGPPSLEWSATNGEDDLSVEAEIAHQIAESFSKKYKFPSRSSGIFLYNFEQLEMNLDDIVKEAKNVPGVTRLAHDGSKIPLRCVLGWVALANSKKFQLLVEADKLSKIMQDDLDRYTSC

Molecular target: T1, Flag-Cdc37 (WT) (mouse) (UniProt Q61081)
T1 sequence: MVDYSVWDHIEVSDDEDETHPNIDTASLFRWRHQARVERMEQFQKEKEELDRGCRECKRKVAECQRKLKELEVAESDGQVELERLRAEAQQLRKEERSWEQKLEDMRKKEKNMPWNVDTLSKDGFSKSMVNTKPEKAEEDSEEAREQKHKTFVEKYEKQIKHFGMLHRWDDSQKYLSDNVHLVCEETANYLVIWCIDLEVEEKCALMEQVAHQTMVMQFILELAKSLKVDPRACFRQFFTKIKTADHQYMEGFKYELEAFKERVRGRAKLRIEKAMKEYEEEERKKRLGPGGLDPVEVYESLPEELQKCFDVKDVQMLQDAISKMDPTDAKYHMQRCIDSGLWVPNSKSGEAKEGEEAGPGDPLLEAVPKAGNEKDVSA
Test: co-IP

Myc-P (from UniProt Q8B6J8 1-297)
binding: binds
